Test results reported in publication PMC5301975.

The chains behind the UniProt entries cited, without tags or fusion partners. Where a name states a change or a piece, a line headed by the entry shows the natural chain unless it says otherwise. A line that says so, or that is headed by a name, gives the form on record, which may keep a tag or linker. Residues count along the entry.
Synaptotagmin I C2A domain GST fusion protein (P21707, residues 140-265): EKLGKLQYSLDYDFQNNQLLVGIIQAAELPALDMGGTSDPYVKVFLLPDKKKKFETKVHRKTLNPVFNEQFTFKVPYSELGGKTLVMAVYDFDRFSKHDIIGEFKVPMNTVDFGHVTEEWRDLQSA
Synaptotagmin I C2B domain GST fusion protein (P21707, residues 271-421): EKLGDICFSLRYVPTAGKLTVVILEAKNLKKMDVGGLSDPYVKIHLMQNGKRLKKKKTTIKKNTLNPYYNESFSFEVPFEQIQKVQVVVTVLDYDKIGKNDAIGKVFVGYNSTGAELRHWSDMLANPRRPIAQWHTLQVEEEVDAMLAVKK
UniProt P84092: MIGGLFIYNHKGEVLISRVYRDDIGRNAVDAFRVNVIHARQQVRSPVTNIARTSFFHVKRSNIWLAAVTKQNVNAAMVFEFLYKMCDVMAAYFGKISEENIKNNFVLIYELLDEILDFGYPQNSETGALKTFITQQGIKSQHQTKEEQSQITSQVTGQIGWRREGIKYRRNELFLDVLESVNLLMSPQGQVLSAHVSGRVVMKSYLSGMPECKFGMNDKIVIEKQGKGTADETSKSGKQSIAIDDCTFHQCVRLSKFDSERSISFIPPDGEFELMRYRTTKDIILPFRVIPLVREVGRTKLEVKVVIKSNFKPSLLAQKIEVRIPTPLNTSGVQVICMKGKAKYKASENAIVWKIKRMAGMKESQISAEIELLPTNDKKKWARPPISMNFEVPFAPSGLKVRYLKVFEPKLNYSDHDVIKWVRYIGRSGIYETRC
UniProt P09606: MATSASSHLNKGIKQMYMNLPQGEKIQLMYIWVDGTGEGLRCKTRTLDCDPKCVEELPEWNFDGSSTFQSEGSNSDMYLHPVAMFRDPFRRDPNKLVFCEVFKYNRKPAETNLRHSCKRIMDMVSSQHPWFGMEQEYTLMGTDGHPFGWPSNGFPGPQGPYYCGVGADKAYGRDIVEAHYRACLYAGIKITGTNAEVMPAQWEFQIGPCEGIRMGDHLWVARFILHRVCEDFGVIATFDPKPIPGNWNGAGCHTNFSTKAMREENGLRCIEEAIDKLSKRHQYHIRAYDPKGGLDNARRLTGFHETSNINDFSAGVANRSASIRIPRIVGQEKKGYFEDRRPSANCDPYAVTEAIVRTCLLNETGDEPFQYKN
UniProt P61265: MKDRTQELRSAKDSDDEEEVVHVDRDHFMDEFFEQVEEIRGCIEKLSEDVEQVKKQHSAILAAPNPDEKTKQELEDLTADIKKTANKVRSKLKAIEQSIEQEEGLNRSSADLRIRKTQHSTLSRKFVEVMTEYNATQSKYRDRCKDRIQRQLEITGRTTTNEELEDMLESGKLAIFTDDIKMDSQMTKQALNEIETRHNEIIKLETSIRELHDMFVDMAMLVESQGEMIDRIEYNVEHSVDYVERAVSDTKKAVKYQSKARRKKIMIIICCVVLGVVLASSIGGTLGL
UniProt Q9QYF3: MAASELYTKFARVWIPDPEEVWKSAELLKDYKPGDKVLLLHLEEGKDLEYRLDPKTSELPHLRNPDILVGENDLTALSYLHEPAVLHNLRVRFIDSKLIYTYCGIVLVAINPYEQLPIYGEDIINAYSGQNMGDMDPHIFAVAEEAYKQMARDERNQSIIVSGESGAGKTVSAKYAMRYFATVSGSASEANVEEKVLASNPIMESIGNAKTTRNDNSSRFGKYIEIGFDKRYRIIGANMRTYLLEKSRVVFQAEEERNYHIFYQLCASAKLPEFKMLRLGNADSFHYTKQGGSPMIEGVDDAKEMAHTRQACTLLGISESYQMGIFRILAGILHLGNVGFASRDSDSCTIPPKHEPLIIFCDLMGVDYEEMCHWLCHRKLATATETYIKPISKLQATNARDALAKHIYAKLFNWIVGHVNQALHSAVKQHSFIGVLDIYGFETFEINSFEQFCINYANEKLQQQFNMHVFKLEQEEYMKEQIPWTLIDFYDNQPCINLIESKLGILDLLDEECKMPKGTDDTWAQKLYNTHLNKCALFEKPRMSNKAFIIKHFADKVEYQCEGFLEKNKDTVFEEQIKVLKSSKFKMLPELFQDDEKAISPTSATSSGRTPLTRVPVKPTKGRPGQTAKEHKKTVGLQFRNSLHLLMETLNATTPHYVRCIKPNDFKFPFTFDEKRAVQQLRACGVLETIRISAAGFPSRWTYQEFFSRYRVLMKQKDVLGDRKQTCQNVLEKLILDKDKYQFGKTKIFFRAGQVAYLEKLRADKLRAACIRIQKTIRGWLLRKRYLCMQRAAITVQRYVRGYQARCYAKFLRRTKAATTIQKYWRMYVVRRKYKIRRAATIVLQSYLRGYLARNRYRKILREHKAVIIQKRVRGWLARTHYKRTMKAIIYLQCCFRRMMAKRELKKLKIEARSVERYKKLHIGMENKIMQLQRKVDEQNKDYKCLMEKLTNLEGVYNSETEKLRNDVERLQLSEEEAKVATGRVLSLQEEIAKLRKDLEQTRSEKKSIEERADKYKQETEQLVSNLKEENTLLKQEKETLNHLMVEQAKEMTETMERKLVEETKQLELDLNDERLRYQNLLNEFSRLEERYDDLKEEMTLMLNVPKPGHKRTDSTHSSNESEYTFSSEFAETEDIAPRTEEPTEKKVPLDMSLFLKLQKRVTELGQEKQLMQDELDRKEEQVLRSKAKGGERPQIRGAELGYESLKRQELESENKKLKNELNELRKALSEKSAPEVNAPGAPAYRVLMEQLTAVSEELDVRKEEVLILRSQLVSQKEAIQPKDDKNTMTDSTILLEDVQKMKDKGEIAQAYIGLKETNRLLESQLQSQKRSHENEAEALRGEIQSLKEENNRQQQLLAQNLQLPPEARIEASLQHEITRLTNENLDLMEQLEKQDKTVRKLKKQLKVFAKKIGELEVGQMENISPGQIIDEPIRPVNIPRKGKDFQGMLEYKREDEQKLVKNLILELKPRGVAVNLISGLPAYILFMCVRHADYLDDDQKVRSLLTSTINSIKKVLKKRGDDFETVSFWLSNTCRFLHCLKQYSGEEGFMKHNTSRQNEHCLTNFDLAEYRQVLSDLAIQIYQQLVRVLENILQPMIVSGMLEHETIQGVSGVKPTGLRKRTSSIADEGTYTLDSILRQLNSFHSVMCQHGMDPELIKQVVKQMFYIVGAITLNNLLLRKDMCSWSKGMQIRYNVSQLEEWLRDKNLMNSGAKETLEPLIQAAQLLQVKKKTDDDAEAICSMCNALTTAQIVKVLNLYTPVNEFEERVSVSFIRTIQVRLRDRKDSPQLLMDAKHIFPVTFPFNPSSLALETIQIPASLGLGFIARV
UniProt P18484: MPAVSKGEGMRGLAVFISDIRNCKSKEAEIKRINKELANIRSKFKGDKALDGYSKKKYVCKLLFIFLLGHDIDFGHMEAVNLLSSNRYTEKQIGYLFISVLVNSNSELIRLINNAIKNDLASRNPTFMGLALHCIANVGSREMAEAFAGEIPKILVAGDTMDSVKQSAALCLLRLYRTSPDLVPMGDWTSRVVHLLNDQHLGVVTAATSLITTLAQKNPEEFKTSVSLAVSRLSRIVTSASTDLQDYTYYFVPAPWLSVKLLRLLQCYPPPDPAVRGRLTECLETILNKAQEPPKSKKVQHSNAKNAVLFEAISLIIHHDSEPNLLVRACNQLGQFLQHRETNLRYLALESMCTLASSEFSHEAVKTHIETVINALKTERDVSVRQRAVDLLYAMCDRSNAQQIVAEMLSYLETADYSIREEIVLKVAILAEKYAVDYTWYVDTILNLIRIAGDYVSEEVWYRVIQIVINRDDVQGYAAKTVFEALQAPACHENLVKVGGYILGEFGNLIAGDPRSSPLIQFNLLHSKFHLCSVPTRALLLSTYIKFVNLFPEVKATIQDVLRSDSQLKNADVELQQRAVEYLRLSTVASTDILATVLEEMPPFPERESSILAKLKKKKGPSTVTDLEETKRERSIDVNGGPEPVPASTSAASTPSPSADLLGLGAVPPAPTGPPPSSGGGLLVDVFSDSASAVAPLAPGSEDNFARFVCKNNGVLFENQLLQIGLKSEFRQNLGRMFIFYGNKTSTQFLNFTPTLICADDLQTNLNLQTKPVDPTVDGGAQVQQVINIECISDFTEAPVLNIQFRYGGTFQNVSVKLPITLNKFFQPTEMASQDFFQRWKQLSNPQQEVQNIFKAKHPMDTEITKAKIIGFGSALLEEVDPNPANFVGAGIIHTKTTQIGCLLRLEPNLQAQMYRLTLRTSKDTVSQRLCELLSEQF
UniProt P11275: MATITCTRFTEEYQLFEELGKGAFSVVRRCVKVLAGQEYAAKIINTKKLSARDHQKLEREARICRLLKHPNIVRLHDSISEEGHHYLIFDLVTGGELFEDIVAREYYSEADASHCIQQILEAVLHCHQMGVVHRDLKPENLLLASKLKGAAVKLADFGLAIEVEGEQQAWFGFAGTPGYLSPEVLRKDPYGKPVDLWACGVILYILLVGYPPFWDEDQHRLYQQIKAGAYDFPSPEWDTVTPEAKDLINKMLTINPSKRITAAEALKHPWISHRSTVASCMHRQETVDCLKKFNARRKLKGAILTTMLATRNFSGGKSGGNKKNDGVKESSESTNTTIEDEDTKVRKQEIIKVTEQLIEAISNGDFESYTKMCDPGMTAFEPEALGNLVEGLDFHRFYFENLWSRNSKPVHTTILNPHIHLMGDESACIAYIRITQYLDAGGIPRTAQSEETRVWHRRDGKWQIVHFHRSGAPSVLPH
UniProt Q9QUL6: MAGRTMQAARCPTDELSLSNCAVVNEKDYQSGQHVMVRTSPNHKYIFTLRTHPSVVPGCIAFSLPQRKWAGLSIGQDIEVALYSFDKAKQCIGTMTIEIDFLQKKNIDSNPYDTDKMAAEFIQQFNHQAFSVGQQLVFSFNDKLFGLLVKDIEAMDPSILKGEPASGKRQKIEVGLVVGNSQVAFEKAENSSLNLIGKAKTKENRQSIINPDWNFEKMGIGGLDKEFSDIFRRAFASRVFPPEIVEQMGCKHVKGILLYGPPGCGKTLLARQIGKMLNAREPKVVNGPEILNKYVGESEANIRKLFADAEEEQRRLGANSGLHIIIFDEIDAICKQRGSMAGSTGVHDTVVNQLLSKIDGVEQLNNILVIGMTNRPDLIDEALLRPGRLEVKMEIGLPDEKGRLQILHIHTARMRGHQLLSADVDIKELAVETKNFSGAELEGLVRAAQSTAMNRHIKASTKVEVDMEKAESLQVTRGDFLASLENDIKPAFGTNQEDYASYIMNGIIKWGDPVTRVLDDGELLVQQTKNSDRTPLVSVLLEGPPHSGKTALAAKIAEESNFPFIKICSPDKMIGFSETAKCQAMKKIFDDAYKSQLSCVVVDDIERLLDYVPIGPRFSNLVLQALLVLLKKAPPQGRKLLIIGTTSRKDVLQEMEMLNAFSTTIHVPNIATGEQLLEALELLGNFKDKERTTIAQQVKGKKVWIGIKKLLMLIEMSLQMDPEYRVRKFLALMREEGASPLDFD

Experiments:
[1] = target: Synaptotagmin I C2B domain GST fusion protein (rat) (UniProt P21707); experiment: affinity purification with mass spectrometry; GST-C2A or GST-C2B bound to glutathione-sepharose beads; rat brain extract (10 mM Hepes-NaOH, 150 mM NaCl, pH 7.4) precleared with bead-bound GST; incubated overnight at 4 °C; washed with RIPA buffer containing 150 mM and 300 mM NaCl; eluted by boiling in SDS loading buffer; SDS-PAGE, in-gel digestion, CapLC-MS/MS; in triplicate; only the target purified
[2] = target: Synaptotagmin I C2A domain GST fusion protein (rat) (UniProt P21707); experiment: as above

Molecule | binding [1] | binding [2]
AP-2 complex subunit mu (from UniProt P84092 1-435) | binds | no binding
Glutamine synthetase (from UniProt P09606 1-373) | binds | binds
Protein piccolo (from UniProt Q9JKS6 1-5085) | no binding | binds
Syntaxin-1B (from UniProt P61265 1-288) | binds | no binding
Unconventional myosin-Va (from UniProt Q9QYF3 1-1828) | binds | no binding

Continued, values first:

binding [1] | binding [2] | Molecule
binds | no binding | AP-2 complex subunit alpha-2 (from UniProt P18484 1-938)
binds | binds | Calcium/calmodulin-dependent Protein kinase type II subunit alpha (from UniProt P11275 1-478)
binds | no binding | Protein kinase C gamma type (from UniProt P63319 1-697)
binds | no binding | Vesicle-fusing ATPase (from UniProt Q9QUL6 1-744)
binds | binds | Voltage-dependent N-type calcium channel subunit alpha-1B (from UniProt Q02294 1-2336)
no binding | binds | SH3-containing GRB2-like protein 3-interacting protein 1 (protein, UniProt P0DJJ3 1-827) MMEGLKKRTRKAFGIRKKEKDTDSTGSPDRDGMQPSPHEPPYHSKAECAREGGKKASKKSNGAPNGFYAEIDWERYNSPELDEEGYSIRPEEPGSTKGKHFYSSSESEEEEESHKKFNIKIKPLQSKDVLKNAATVDELKASIGNIALSPSPVRKSPRRSPGAIKRNLSSEEVARPRRSTPTPELTSKKPLDDTLALAPLFGPPLESAFDEQKTEVLLDQPEIWGSGQPINPSMESPKLARPFPTGTPPPLPPKAVPATPPRTGSPLTVATGNDQAATEAKIEKLPSISDLDSIFGPVLSPKSVAVNTEEKWVHFSDASPEHVTPELTPREKVVTPPAASDIPADSPAPGPPGPPGSAGPPGPPGPRHVPSPLNLEEVQKKVAEQTFIKDDYLETLSSPKECGLGQRATPPPPPPPTYRTVVSSPGPGSGSGTGTASGASSPARPATPLVPCSSTTPPPPPPRPPSRPKLPPGKPGVGDVSRPFSPPIHSSSPPPIAPLARAESTSSISSTNSLSAATTPTVENEQPSLVWFDRGKFYLTFEGSSRGPSPLTMGAQDTLPVAAAFTETVNAYFKGADPSKCIVKITGEMVLSFPAGITRHFANNPSPAALTFRVINSSRLEHVLPNPQLLCCDNTQNDANTKEFWVNMPNLMTHLKKVSEQKPQATYYNVDMLKYQVSAQGIQSTPLNLAVNWRCEPGSTDLRIDYKYNTDAMTTAVALNNVQFLVPIDGGVTKLQAVLPPAVWNAEQQRILWKIPDISQKSENGGVGSLLARFQLSEGPSKPSPLVVQFTSEGSTLSGCDIELVGAGYRFSLIKKRFAAGKYLADN
binds | no binding | Excitatory amino acid transporter 1 (protein, UniProt P24942 1-543) MTKSNGEEPRMGSRMERFQQGVRKRTLLAKKKVQNITKEDVKSYLFRNAFVLLTVSAVIVGTILGFALRPYKMSYREVKYFSFPGELLMRMLQMLVLPLIISSLVTGMAALDSKASGKMGMRAVVYYMTTTIIAVVIGIIIVIIIHPGKGTKENMYREGKIVQVTAADAFLDLIRNMFPPNLVEACFKQFKTSYEKRSFKVPIQANETLLGAVINNVSEAMETLTRIREEMVPVPGSVNGVNALGLVVFSMCFGFVIGNMKEQGQALREFFDSLNEAIMRLVAVIMWYAPLGILFLIAGKILEMEDMGVIGGQLAMYTVTVIVGLLIHAVIVLPLLYFLVTRKNPWVFIGGLLQALITALGTSSSSATLPITFKCLEENNGVDKRITRFVLPVGATINMDGTALYEALAAIFIAQVNNFDLNFGQIITISITATAASIGAAGIPQAGLVTMVIVLTSVGLPTDDITLIIAVDWFLDRLRTTTNVLGDSLGAGIVEHLSRHELKNRDVEMGNSVIEENEMKKPYQLIAQDNEPEKPVADSETKM

No constants are given. Whether binding was seen depends on the method and setting. Binding seen in cells or lysates may run through a third protein. These calls come from enrichment with a bait or labelling near it, and not all partners need be listed. A no says only that the protein was not detected with the bait.
